Source: US20110053865A1
These are yes or no findings as the source states them, for the method shown. Binding calls can cover weak binding; strength is not graded here.

Target: marmoset IL-23 (marmoset)
Experiment: inhibition ELISA

binding | Binder
binds | P23IL119A3V16-35GS-81G2V11-HSA (bispecific antibody, not shown: large carriers) EVQLLESGGGLVQPGGSLRLSCAASGRIFSLPASGNIFNLLTIAWYRQAPGKGRELVATINSGSRTYYADSVKGRFTISRDNSKKTLYLQMNSLRPEDTAVYYCQTSGSGSPNFWGQGTLVTVSSGGGGSGGGGSGGGGSGGGGSGGGGSGGGGSGGGGSEVQLLESGGGLVQPGGSLRLSCAASGLPFSTKSMGWFRQAPGKGREFVSRISPGGTSRYYGDFVKGRFTISRDNSKNTLYLQMNSLRAEDTAVYYCASGERSTYIGSNYYRTNEYDYWGQGTLVTVSS
binds | P23IL119A3V16-35GS-81G2V11-GGGC-PEG40 linear (bispecific antibody, linear mPEG40 (maleimide) on the C-terminal Cys of GGGC) EVQLLESGGGLVQPGGSLRLSCAASGRIFSLPASGNIFNLLTIAWYRQAPGKGRELVATINSGSRTYYADSVKGRFTISRDNSKKTLYLQMNSLRPEDTAVYYCQTSGSGSPNFWGQGTLVTVSSGGGGSGGGGSGGGGSGGGGSGGGGSGGGGSGGGGSEVQLLESGGGLVQPGGSLRLSCAASGLPFSTKSMGWFRQAPGKGREFVSRISPGGTSRYYGDFVKGRFTISRDNSKNTLYLQMNSLRAEDTAVYYCASGERSTYIGSNYYRTNEYDYWGQGTLVTVSSGGGC
